The experiment has as its target T1, MYC-tagged MG53 (TRIM72) (human) (UniProt Q6ZMU5).
T1 sequence: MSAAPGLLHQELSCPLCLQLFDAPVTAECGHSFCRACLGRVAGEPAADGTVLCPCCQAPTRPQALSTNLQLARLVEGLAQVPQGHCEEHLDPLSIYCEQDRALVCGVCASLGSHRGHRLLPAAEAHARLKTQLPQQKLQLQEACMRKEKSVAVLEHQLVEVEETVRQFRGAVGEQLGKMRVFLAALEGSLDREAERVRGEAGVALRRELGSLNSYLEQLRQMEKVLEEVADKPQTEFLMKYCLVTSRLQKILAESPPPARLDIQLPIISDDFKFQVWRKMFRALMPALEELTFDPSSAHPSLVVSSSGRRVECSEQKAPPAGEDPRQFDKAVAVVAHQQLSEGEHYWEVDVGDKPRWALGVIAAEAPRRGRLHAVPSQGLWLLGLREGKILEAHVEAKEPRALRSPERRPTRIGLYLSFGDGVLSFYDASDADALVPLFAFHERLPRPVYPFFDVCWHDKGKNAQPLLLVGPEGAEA
The experiment is described as follows: affinity purification with mass spectrometry; C-terminally MYC-tagged MG53 expressed by adenovirus in HCT116 or AGS cells; immunoprecipitated with anti-MYC antibody (IgG control) on protein A Sepharose; gel bands analysed by LC-MS/MS.

The chains behind the UniProt entries cited, without tags or fusion partners.
UniProt Q00534: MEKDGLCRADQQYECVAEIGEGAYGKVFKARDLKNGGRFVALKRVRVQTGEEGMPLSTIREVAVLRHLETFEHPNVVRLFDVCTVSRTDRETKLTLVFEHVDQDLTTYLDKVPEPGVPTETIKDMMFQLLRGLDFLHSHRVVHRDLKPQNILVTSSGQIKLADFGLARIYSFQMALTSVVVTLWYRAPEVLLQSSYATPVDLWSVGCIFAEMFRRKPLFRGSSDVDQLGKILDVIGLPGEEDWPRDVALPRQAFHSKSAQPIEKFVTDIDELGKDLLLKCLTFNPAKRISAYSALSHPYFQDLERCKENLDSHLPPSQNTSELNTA
UniProt P24385: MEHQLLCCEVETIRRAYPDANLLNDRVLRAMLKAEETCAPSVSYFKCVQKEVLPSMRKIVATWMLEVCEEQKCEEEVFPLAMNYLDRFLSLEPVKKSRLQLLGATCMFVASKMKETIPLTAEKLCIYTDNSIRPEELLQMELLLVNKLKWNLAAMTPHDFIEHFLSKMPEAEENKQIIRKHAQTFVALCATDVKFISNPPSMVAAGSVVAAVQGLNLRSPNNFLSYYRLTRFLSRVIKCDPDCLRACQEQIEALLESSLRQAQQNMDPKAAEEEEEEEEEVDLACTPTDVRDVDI

No constants are given. Whether binding was seen depends on the method and setting. In cells and extracts the contact can be indirect. A yes stands for co-enrichment or nearness to the bait. Other partners may have been found. Tags and fused reporters may be left off the sequences shown.

As to “CDK6 (from UniProt Q00534 1-326) (enzyme)”, the binding result is listed as “binds”.
For the substance “endogenous cyclin D1 (from UniProt P24385 1-295)”, the binding result is recorded as “binds”.

Values taken from article PMC10326024.
